Results are given in words; binding and its absence hold for the method and conditions named. Some binding calls cover weakened binding; strength is not graded here.
Key:
[1] = biological target: human VISTA polypeptide (ELISA coat) (human) (UniProt Q9H7M9); assay: ELISA, plate coated with human VISTA
[2] = biological target: human VISTA polypeptide (ELISA coat) (human) (UniProt Q9H7M9); assay: ELISA, plate coated with B7H5 (VISTA)
[3] = biological target: human VISTA polypeptide (ELISA coat) (human) (UniProt Q9H7M9); assay: ELISA, plate-coated protein

Protein sequences, listed by entry. Tags and fused reporters are not part of them. Lines headed by an entry give the natural chain unless they say otherwise; changes in a name come on top.
UniProt Q9H7M9: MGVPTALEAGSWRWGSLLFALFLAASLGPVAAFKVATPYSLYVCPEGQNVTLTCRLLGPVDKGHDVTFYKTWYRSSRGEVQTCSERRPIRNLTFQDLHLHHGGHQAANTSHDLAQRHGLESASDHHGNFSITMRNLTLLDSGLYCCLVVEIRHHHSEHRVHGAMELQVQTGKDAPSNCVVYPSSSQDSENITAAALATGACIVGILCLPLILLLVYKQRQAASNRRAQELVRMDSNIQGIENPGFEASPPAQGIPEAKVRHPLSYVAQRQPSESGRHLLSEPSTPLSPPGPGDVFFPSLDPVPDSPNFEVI

Binder | binding [1] | binding [2] | binding [3]
anti-VISTA clone V4-C1 IgG1 (antibody, V domains shown) VH: QVQLQESGPGLVKPSDTLSLTCTVSGYSITSDYAWNWIRQTPGKGLEWIGYITYSGYISYNPSLRSRVTISRDTSKNQFSLKLSSVTAADTAVYSCARALYYPWYFDVWGTGTTVTVSS VL: EIVITQSPATLSLSPGERATLSCRASSSVGYIHWYQQKPGQAPRPLIYATSNRATGIPARFSGSGSGTDNTLTISSLEPEDSAVYYCQQWSSYPPITFGGGTKLEVKR | binds | – | –
anti-VISTA clone V4-C26 IgG1 (antibody, V domains shown) VH: QVQLQESGPGLVKPSDTLSLTCTVSGYSITSDYTWNWIRQTPGKGLEWIGHITYSGSVSYNPSLRSRVTISRDTSKNQFSLKLSSVTAADTATYSCARALYYPWYFDVWGTGTTVTVSS VL: EIVLTQSPATLSLSPGERATLSCRASSSVGYIHWYQQKPGQAPRPIIYTTSNRATGIPARFSGSGSGTDNTLTISSLEPEDSAVYYCQQWSSYPPITFGGGTKLEVKR | binds | binds | binds
anti-VISTA clone V4-C9 IgG1 (antibody, V domains shown) VH: QVQLQESGPGLVKPSDTLSLTCTVSGYSITSDYAWNWIRQTPGKGLEWIGYITYSGYVSYNPSLRSRVTISRDTSKNQFSLKLSSVTAADTAVYSCARALYYPWYFDVWGTGTTVTVSS VL: EIVLTQSPATLSLSPGERATLSCRASSSVGYIHWYQQKPGQAPRPLIYATSNRATGIPARFSGSGSGTDNTLTISSLEPEDSAVYYCQQWSSYPPITFGGGTKLEVKR | binds | – | –
anti-VISTA clone V4-C24 IgG1 (antibody, V domains shown) VH: QVQLQESGPGLVKPSDTLSLTCTVSGYSITSDYTWNWIRQTPGKGLEWIGHITYSGSVSYNPSLRSRVTISRDTSKNQFSLKLSSVTAADTATYSCARALYYPWYFDVWGTGTTVTVSS VL: EIVLTQSPATLSLSPGERATLSCRASSSVGYIHWYQQKPGQAPRPLIYTTSYRATGIPARFSGSGSGTDNTLTISSLEPEDSAVYYCQQWSSYPPITFGGGTKLEVKR | binds | binds | binds

The remaining lines, values ahead:

binding [1] | binding [2] | binding [3] | Binder
binds | binds | binds | anti-VISTA clone V4-C30 IgG1 (antibody, V domains shown) VH: QVQLQESGPGLVKPSDTLSLTCTVSGYSITSDYTWNWIRQTPGKGLEWIGHITYSGSVSYNPSLRSRVTISRDTSKNQFSLKLSSVTAADTATYSCARALYYPWYFDVWGTGTTVTVSS VL: EIVLTQSPATLSLSPGERATLSCRASSSVGYIHWYQQKPGQAPRPLIYATYYRATGIPARFSGSGSGTDNTLTISSLEPEDSAVYYCQQWSSYPPITFGGGTKLEVKR
binds | binds | binds | anti-VISTA clone V4-C27 IgG1 (antibody, V domains shown) VH: QVQLQESGPGLVKPSDTLSLTCTVSGYSITSDYTWNWIRQTPGKGLEWIGHITYSGSVSYNPSLRSRVTISRDTSKNQFSLKLSSVTAADTATYSCARALYYPWYFDVWGTGTTVTVSS VL: EIVLTQSPATLSLSPGERATLSCRASSSVGYIHWYQQKPGQAPRPLIYATYNRATGIPARFSGSGSGTDNTLTISSLEPEDSAVYYCQQWSSYPPITFGGGTKLEVKR
binds | binds | binds | anti-VISTA clone V4-C28 IgG1 (antibody, V domains shown) VH: QVQLQESGPGLVKPSDTLSLTCTVSGYSITSDYTWNWIRQTPGKGLEWIGHITYSGSVSYNPSLRSRVTISRDTSKNQFSLKLSSVTAADTATYSCARALYYPWYFDVWGTGTTVTVSS VL: EIVLTQSPATLSLSPGERATLSCRASSSVGYIHWYQQKPGQAPRPLIYATSYRATGIPARFSGSGSGTDNTLTISSLEPEDSAVYYCQQWSSYPPITFGGGTKLEVKR
binds | binds | binds | anti-VISTA clone V4-C31 IgG1 (antibody, V domains shown) VH: QVQLQESGPGLVKPSDTLSLTCTVSGYSITSDYTWNWIRQTPGKGLEWIGHITYSGSVSYNPSLRSRVTISRDTSKNQFSLKLSSVTAADTATYSCARALYYPWYFDVWGTGTTVTVSS VL: EIVLTQSPATLSLSPGERATLSCRASSSVGYIHWYQQKPGQAPRPLIYATYYRTTGIPARFSGSGSGTDNTLTISSLEPEDSAVYYCQQWSSYPPITFGGGTKLEVKR
